Results published in paper PMC4856089.

By UniProt entry, the sequences of proteins in these tests, tags left out. Where a name states a change or a piece, a line headed by the entry shows the natural chain unless it says otherwise.
UniProt Q8RWQ8: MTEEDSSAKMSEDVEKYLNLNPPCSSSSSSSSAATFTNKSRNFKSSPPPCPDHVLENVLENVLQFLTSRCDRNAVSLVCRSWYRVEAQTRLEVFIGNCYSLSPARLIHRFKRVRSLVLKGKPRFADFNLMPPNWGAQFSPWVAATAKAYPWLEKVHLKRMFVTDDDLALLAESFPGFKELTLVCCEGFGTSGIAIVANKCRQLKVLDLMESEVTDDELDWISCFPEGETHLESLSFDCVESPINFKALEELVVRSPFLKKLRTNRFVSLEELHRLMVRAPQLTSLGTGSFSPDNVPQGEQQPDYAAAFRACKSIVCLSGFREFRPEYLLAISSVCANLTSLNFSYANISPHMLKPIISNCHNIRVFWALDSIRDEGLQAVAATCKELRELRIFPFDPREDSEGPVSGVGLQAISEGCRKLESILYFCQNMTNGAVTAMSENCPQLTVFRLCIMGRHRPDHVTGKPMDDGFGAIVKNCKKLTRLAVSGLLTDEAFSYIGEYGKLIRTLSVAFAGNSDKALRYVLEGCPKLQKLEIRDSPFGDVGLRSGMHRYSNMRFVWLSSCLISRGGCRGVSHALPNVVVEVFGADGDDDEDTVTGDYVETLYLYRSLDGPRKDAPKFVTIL
UniProt Q9LTX2: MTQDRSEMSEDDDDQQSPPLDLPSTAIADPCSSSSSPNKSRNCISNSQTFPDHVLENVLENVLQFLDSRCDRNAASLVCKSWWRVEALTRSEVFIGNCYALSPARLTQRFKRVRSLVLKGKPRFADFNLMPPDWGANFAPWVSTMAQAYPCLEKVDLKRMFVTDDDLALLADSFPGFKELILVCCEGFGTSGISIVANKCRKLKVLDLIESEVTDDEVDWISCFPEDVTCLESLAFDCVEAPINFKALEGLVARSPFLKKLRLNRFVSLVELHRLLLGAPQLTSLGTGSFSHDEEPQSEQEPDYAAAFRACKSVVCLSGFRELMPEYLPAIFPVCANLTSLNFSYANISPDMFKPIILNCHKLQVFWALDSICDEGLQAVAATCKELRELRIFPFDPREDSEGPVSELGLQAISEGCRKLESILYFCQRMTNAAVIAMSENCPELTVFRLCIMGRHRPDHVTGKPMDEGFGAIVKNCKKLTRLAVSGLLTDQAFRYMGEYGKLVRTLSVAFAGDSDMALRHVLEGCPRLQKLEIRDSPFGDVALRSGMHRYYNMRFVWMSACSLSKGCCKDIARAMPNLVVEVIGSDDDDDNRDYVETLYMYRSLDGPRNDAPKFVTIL
UniProt Q39255: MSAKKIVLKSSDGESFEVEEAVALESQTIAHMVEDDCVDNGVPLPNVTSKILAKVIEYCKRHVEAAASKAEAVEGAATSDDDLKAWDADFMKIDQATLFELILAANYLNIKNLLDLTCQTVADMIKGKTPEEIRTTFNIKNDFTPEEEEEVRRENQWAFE

Assays:
[1] = target: AFB4-Myc (pAFB5:AFB4-4×Myc) (Arabidopsis thaliana) (UniProt Q8RWQ8); experiment: co-IP; Myc-tagged F-box proteins immunoprecipitated from crude plant extracts with anti-c-Myc antibody coupled to agarose beads; ASK1 detected by blot with anti-ASK1 antibody
[2] = target: AFB5-Myc (pAFB5:AFB5-4×Myc) (Arabidopsis thaliana) (UniProt Q9LTX2); experiment: as above

In the case of “ASK1 (Arabidopsis SKP1-related protein) (from UniProt Q39255 1-160)”, the binding [1] is reported as “binds” and the binding [2] is reported as “binds”.

These are yes or no findings as the source states them, for the method shown. In cells and extracts the contact can be indirect. Binding can be weak; no strength is given.
